# Results deposited as PubChem BioAssay AID743121 (NCATS, 2013).
# Screen: 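Genes whose silencing strengthens cell killing by camptothecin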 (primary screen)
# Cell system: MDA-MB-231 cells, a human breast cancer line
# Reagent: single siRNA against human genes, 20 nM siRNA (0.8 pmol per well)
# Timing: 120 h (drug added 48 h after transfection, read 72 h later)
# Conditions: camptothecin 20 nM (about EC30) for 72 h; vehicle 0.1% DMSO in parallel plates
# Read-out: 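CellTiter-Glo ATP signal, scaled to control siRNA as percent viability; sensitisation given as log2 of untreated divided by camptothecin-treated viability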
# Reading the numbers: log2 vehicle/camptothecin viability: higher = stronger sensitisation to camptothecin
# Call rule: 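Active genes have an RSA gene-level p-value below 0.001, computed from the ratios of their separate siRNAs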
# Shown is a random part of about 26,000 deposited reagents. Of all reagents, 167 (0.63%) got an active call. 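Calls are per gene from RSA p-values that are not deposited; an individual active-marked siRNA can sensitise only weakly.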 Entries without a mark were called inactive. The numbers tell different reagents against one gene apart. Further read-outs or replicates are left out here. No sequences are given here.
gene knocked down,reagent,log2 vehicle/camptothecin viability
EPHX1,1,-0.0161
EPHX1,2,-0.326
EPHX1,3,-0.00691
EPHX1,4,0.397
CDHR1,1,-0.287
CDHR1,2,-0.151
CDHR1,3,-0.13
MAST4,1,-0.262
MAST4,2,0.452
MAST4,3,-0.134
MAST4,4,-0.327
MAST4,5,-0.238
MAST4,6,0.011
MAST4,7,0.137
MAST4,8,-0.38
PDCD6IP,1,0.0217
PDCD6IP,2,0.231
PDCD6IP,3,0.332
MAD2L2,1,0.244
MAD2L2,2,-0.336
MAD2L2,3,-0.214
TOP2B,1,-0.639
TOP2B,2,-0.133
TOP2B,3,-0.0723
ADAMTS4,1,-0.243
ADAMTS4,2,-0.121
ADAMTS4,3,-0.0762
ADAMTS4,4,-0.359
ELF2,1,0.591
ELF2,2,-0.133
ELF2,3,-0.0497
ELF2,4,-0.274
CCN4,1,-0.249
CCN4,2,0.0827
CCN4,3,-0.0806
CCN4,4,-0.244
TSPAN31,1,-0.0707
TSPAN31,2,0.026
TSPAN31,3,0.487
TSPAN31,4,-0.412
TNFRSF10B,1,0.13
TNFRSF10B,2,-0.0638
TNFRSF10B,3,0.0325
TNFRSF10B,4,0.0314
ZNRF1,1,0.0351
ZNRF1,2,0.482
ZNRF1,3,0.0827
ZNRF1,4,-0.697
PAQR7,1,-0.294
PAQR7,2,-0.0352
PAQR7,3,-0.2
PAQR7,4,0.0266
BFAR,1,-0.43
BFAR,2,-0.271
BFAR,3,0.0748
HECTD3,1,-0.191
HECTD3,2,-0.195
HECTD3,3,-0.165
TRAK2,1,0.00144
TRAK2,2,-0.0883
TRAK2,3,-0.194
TRAK2,4,0.0224
PPP1R2C,1,-0.0572
PPP1R2C,2,0.847
PPP1R2C,3,-0.358
PPP1R2C,4,-0.538
PPP2R3A,1,-0.15
PPP2R3A,2,-0.479
PPP2R3A,3,-0.341
PPP2R3A,4,-0.441
ALOX15,1,-0.0649
ALOX15,2,-0.612
ALOX15,3,-0.00211
TUBGCP2,1,-5.98
TUBGCP2,2,0.322
TUBGCP2,3,0.119
TUBGCP2,4,-0.14
KCNK2,1,0.629 (active)
KCNK2,2,0.249 (active)
KCNK2,3,0.467 (active)
KCNK2,4,0.341 (active)
FKBP14,1,-0.463
FKBP14,2,-0.161
FKBP14,3,-0.353
FKBP14,4,-0.0764
PPP1R10,1,0.0863
PPP1R10,2,0.206
PPP1R10,3,-0.589
PPP1R10,4,-0.435

13 successive reagents from above:
gene knocked down,reagent,log2 vehicle/camptothecin viability
MAST4,2,0.452
MAST4,3,-0.134
MAST4,4,-0.327
MAST4,5,-0.238
MAST4,6,0.011
MAST4,7,0.137
MAST4,8,-0.38
PDCD6IP,1,0.0217
PDCD6IP,2,0.231
PDCD6IP,3,0.332
MAD2L2,1,0.244
MAD2L2,2,-0.336
MAD2L2,3,-0.214
